Measured values from PubChem BioAssay AID624297 (National Center for Advancing Translational Sciences (NCATS), 2012).
The campaign covered roughly 340,000 compounds. About 6,200 (1.8%) were called active. The inconclusive results got no clear call from the source; some entries with a clear call stand among them for comparison. Calls follow the shape of the dose curve; as a rule, active = well fitted activation curve with a large enough effect; inconclusive = small, poorly fitted or top-dose-only effect; inactive = no such curve, though single readings can be large or run the other way. Potencies of inconclusive entries are doubtful fits and often do not repeat.

Assay: A quantitative high throughput screen for small molecules that induce DNA re-replication in SW480 colon adenocarcinoma cells. Also: nearly all actives have a fitted effect of over 55% in size.
Details: Hoechst DNA content imaging, 48 h; series mostly up to 46.1 µM
Procedure, shortened: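 DNA re-replication was detected as more nuclei of elevated Hoechst intensity after 48 hr exposure to compound (23 nL pinned per well of 250 cells).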
Potency is read from the fitted curve at half-maximal effect.

SMILES	Potency
CCC(=O)Nc1ccc(NC(=O)c2ccccc2)nc1	inactive
COc1ccc(C(=O)CCC(=O)Nc2cc(Cl)c(O)c(Cl)c2)cc1	inconclusive: 16.4 µM [activator, single point]
Cc1cc(C(=O)C(C(c2ccccc2)N2CCOCC2)N2CCOCC2)ccc1Cl (centres undefined)	inconclusive: 0.146 µM [activator, full curve, poor fit]
Cc1nc(-c2ccccc2)nc2[nH]c(-c3ccccc3)cc(=O)c12	inactive
CNc1ccccc1C(C)(C)c1cc(-c2cc(C)cc(C)c2)no1	inconclusive: 23.1 µM [activator, partial curve, poor fit]
CCCCN1C2CCCC1CC(NC(=O)c1cccc(Cl)c1)C2 (centres undefined)	inactive
O=[N+]([O-])c1cccnc1N1CCC(c2cc(-c3ccc(Cl)cc3)n[nH]2)CC1	inconclusive: 29.1 µM [activator, single point]
N#C/C(=C\c1ccc(-c2ccc(Br)cc2)o1)C(=O)NCCc1c[nH]c2ccccc12	inconclusive: 18.4 µM [activator, partial curve, poor fit]
O=C(CN1CCN(c2ccccc2O)CC1)Nc1ccc(S(=O)(=O)N2CCCCCC2)cc1	inconclusive: 8.2 µM [activator, partial curve, poor fit]
C/C(=N\Nc1nccnc1Cl)c1ccc(Cl)c(Cl)c1	inactive
Cc1ccc(S(=O)(=O)CCC(=O)NNC(=O)CN(C)S(=O)(=O)c2ccc(C)cc2)cc1	inconclusive: 29.1 µM [activator, partial curve, poor fit]
Cc1cc(C(=O)NCc2cccs2)c(C)o1	inconclusive: 29.1 µM [activator, single point]
O=C1C=C(Nc2ccc(Cl)cc2)CC(c2ccco2)C1 (centres undefined)	inconclusive: 29.1 µM [activator, single point]
Nc1ccc2ccc(O)cc2c1	active: 18.4 µM
COC(=O)C1=C(C)N(c2ccc(Cl)c(Cl)c2)C(=O)C1	inconclusive: 16.4 µM [activator, single point]
CN(CC(=O)Nc1ccccc1Br)C(=O)CN(C)C1CCCCC1	inactive
CCCC(=O)Nc1nc(C)c(-c2csc(Nc3ccccc3OC)n2)s1	inactive
COc1ccc(S(=O)(=O)N2CCC(C(=O)NCc3ccncc3)CC2)cc1OC	inconclusive: 20.6 µM [activator, single point]
COc1ccc(NC(=O)c2sc3nc(-c4cccnc4)ccc3c2N)cc1OC	inconclusive: 29.1 µM [activator, partial curve, poor fit]
CC(=O)n1nc(-c2ccc(Cl)cc2)nc1NCc1ccco1	inconclusive: 29.1 µM [activator, single point]
CCn1c2ccccc2c2cc(NC(=O)COc3ccccc3OC)ccc21	active: 14.6 µM
Cc1ccc(N2CN(Cc3ccco3)CNC2=S)cc1	inactive
CCN(CC(=O)Nc1ccc(OC)c(Cl)c1)CC(=O)NC(C)C	inactive

SMILES	Potency
CC1(C)Cc2c(c(-c3ccco3)nc3sc4c(NCCO)ncnc4c23)CO1	inactive
CC1CCN(C(=O)c2ccc([N+](=O)[O-])o2)CC1	inconclusive: 23.1 µM [activator, single point]
CCOC(=O)/C=C/c1cnn(-c2ccccc2)c1	inactive
COc1cc(C2c3cc4c(cc3OC(N3CCCCC3)C2C)OCO4)cc(OC)c1O (centres undefined)	inconclusive: 20.6 µM [activator, single point]
C=CCN1C(=O)c2ccc(C(=O)N3CCN(S(=O)(=O)c4cccc([N+](=O)[O-])c4)CC3)cc2C1=O	inactive
O=c1c2ccccc2sn1-c1cc(S(=O)(=O)N2CCOCC2)ccc1N1CCOCC1	inconclusive: 20.6 µM [activator, single point]
Cc1ccc(S(=O)(=O)Nc2ccc3c(c2)ncn3C(C)(C)C)cc1	inconclusive: 9.2 µM [activator, partial curve]
CC1(C)Cc2c(sc(NC(=O)COc3ccc(Cl)cc3)c2C#N)C(C)(C)N1	inconclusive: 18.4 µM [activator, single point]
COc1ccc(-c2cn3ccc4ccccc4c3n2)cc1	inconclusive: 15.8 µM [activator, partial curve, poor fit]
Cn1c(=O)c([N+](=O)[O-])c(-n2cnc3ccccc32)c2ccccc21	inconclusive: 29.1 µM [activator, single point]
CN1CCN(C(=O)/C(=C\c2cccs2)NC(=O)c2cccs2)CC1	inconclusive: 8.2 µM [activator, partial curve, poor fit]
Cc1coc(C)c1C(=O)CC1(O)C(=O)N(Cc2ccccc2)c2ccccc21 (centres undefined)	inconclusive: 25.9 µM [activator, single point]
NS(=O)(=O)c1ccc(NC(=O)COC(=O)c2ccc(Cl)cc2[N+](=O)[O-])cc1	inconclusive: 6.51 µM [activator, single point]
CCCn1nnnc1SCC(=O)NCc1ccc(OC)cc1	inactive
COc1ccccc1NC(=O)Nc1ccnn1C1CCN(C(=O)c2cscn2)CC1	inconclusive: 23.1 µM [activator, single point]
CCOC(=O)c1c(N)sc2c1CCC1C(=O)N(C3CCCCC3)C(=O)C21 (centres undefined)	inconclusive: 18.4 µM [activator, single point]
O=C(CCCl)Nc1nnc(SCC(=O)NC2CCCC2)s1	active: 8.2 µM
O=C1/C(=C/c2ccc(O)c([N+](=O)[O-])c2)SC(=S)N1Cc1ccccc1	inactive
O=C(/C=C/c1ccccc1)c1ccccc1	inconclusive: 29.1 µM [activator, single point]
CCCCC(=O)Nc1ccc(N2CCN(C(=O)c3ccco3)CC2)cc1	inconclusive: 29.1 µM [activator, partial curve, poor fit]
COc1ccc(N(C)S(=O)(=O)c2cccc(C(=O)Nc3nc4ccccc4[nH]3)c2)cc1	inconclusive: 23.1 µM [activator, partial curve, poor fit]
O=C(CCl)Nc1ccc(S(=O)(=O)NC2=NCCCCC2)cc1	inconclusive: 23.1 µM [activator, single point]
Cc1ccc(-c2csc3nc4c5ccccc5c(NCCCN(C)C)nn4c(=O)c23)cc1	inconclusive: 2.59 µM [activator, full curve, poor fit]

SMILES	Potency
O=C(Nc1ccc(Cl)cn1)c1cc2c(s1)-c1ccccc1OC2	inconclusive: 18.4 µM [activator, single point]
NC(=O)c1ccc(Oc2ccc3ccc(=O)oc3c2)c([N+](=O)[O-])c1	inactive
O=C(Nc1ccc(Cl)cn1)C1CCN(c2ncnc3c2nc2n3CCCCC2)CC1	inconclusive: 35.5 µM [activator, single point]
Cc1cc(S(=O)(=O)NCc2cccnc2)ccc1-n1cnnn1	inconclusive: 29.1 µM [activator, single point]
Cc1ccc(S(=O)(=O)NCC(C)NS(=O)(=O)c2ccccc2[N+](=O)[O-])cc1 (centres undefined)	inconclusive: 29.1 µM [activator, single point]
COc1cc([C@@H]2CC=C(C(=O)O)[C@H](c3ccccc3)N2S(=O)(=O)c2ccc(C)cc2)cc(OC)c1OC	inconclusive: 16.4 µM [activator, partial curve, poor fit]
COc1ccc(N2CCN(C(=O)NC(=O)c3ccccc3)CC2)cc1	inactive
O=C(CCC(F)(F)F)N1CCCC(CO)(CCc2ccccc2)C1 (centres undefined)	inconclusive: 2.31 µM [activator, partial curve, poor fit]
COc1cccc(/C=C/C(=O)NNC(=O)c2cc(C)oc2C)c1	inactive
C=CCn1c(C)cc(C(=O)Cn2ncc(Cl)c(Cl)c2=O)c1C	active: 2.91 µM
O=C(O)c1ccc(CN2CCCCC2)o1	inconclusive: 29.1 µM [activator, single point]
COc1ccc2nc(NC(=O)c3ccccc3F)sc2c1	inactive
CCOC(=O)C1=C(c2ccccc2)NC(=S)NC1c1ccc(C)c([N+](=O)[O-])c1 (centres undefined)	inconclusive: 23.1 µM [activator, single point]
CN(CC1CCN(CCc2cccc(C(F)(F)F)c2)CC1)C(=O)c1ccccc1	inactive
COC(=O)c1ccccc1NC(=O)C1CC(=O)N(c2ccc(OC)cc2)C1 (centres undefined)	inconclusive: 23.1 µM [activator, single point]
CCN1CCN(c2ccc(N3CCN(S(=O)(=O)c4cc([N+](=O)[O-])ccc4C)CC3)nn2)CC1	inconclusive: 23.1 µM [activator, single point]
O=C(/C(=C/c1ccc(Cl)cc1)c1nc2ccccc2[nH]1)c1ccccc1	active: 5.17 µM
Cc1ccc(OCC(=O)NNC(=O)C(=O)NC(C)(C)C)cc1	inconclusive: 0.58 µM [activator, full curve, poor fit]
O=C(Oc1oc(-c2ccco2)nc1C=Nc1ccc(Cl)cc1)c1ccco1	inactive
CC(C)(C)N(NC(=O)Nc1ccc(F)cc1)C(=O)c1ccccc1	inactive
CCOC(=O)C1(Cc2ccccc2)CCN(Cc2nccn2CC)CC1	inconclusive: 29.1 µM [activator, single point]
OCCNc1nc2ccccc2n1-c1ncnc2sc3c(c12)CCC3	inconclusive: 23.1 µM [activator, single point]
CCOC(=O)c1ccc(NC(=O)Cn2cnc3cc(C)c(C)cc32)cc1	inconclusive: 23.1 µM [activator, partial curve, poor fit]

Filtered by structure, the compounds so far containing an NH in an aromatic ring.
SMILES	Potency
Cc1nc(-c2ccccc2)nc2[nH]c(-c3ccccc3)cc(=O)c12	inactive
O=[N+]([O-])c1cccnc1N1CCC(c2cc(-c3ccc(Cl)cc3)n[nH]2)CC1	inconclusive: 29.1 µM [activator, single point]
N#C/C(=C\c1ccc(-c2ccc(Br)cc2)o1)C(=O)NCCc1c[nH]c2ccccc12	inconclusive: 18.4 µM [activator, partial curve, poor fit]
COc1ccc(N(C)S(=O)(=O)c2cccc(C(=O)Nc3nc4ccccc4[nH]3)c2)cc1	inconclusive: 23.1 µM [activator, partial curve, poor fit]
O=C(/C(=C/c1ccc(Cl)cc1)c1nc2ccccc2[nH]1)c1ccccc1	active: 5.17 µM
